Experimental data taken from paper PMC7819943, “Rice protein-binding microarrays: a tool to detect cis-acting elements near promoter regions in rice”.
The other results are listed elsewhere or left out.

By UniProt entry, the sequences of proteins in these tests, tags left out.
UniProt Q0JBA9, entry or part of it: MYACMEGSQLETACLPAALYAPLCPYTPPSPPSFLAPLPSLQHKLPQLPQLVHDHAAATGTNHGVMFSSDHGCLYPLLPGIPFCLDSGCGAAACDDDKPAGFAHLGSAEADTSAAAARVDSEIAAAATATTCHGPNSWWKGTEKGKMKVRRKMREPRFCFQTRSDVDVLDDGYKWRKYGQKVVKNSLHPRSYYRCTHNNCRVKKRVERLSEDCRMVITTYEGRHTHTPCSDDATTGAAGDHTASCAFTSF

target: OsWRKY34 (Oryza sativa, UniProt Q0JBA9 1-250); assay: protein-binding microarray (RPBM); PBS, 2% BSA, 51.3 ng/ul salmon testes DNA, 50 uM zinc acetate, 200 nM TF, 25 C, 1 h; high values mean tight binding; details: protein: recombinant; tags: N-terminal polyhistidine and DsRed monomer fusion (pET32a); label: CyDye5-dUTP incorporated in the synthesized complementary strand; 3' TTTTT single-stranded linker to array surface; dsDNA, one strand shown
Method in brief: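 Transcription factors were each fused at the N-terminus to a polyhistidine tag plus DsRed and expressed in E. coli BL21-CodonPlus before Ni–NTA purification. Binding to a double-stranded custom Agilent array was carried out with 200 nM protein at 25 °C for 1 h in PBS, 2% BSA, salmon testes DNA and 50 µM zinc acetate. The binding signal is per-feature fluorescence intensity, in arbitrary units, on an Axon 4000B scanner.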

Sequence	binding signal
CCGTTTCAAAATATTTGACACCGTTGACTTTTTAGTACGTCGGAGTCACCTAGTGCAG	26800 fluorescence intensity (a.u.)
AGCAGGCATCTTTACTCCTAACATACAACTATATTGACAACGGAGTCACCTAGTGCAG	8230 fluorescence intensity (a.u.)
CGCCATCAATCACCATCTACACCTCTAGAGAGCTAATTAACGGAGTCACCTAGTGCAG	8260 fluorescence intensity (a.u.)
GCATCGTTTCTCCTGGCGTCACTGCACCCATAACTGCCAACGGAGTCACCTAGTGCAG	9200 fluorescence intensity (a.u.)
CACGACCACGACTCCATCAACGCCCAAGCAAAGCCGCCGGCGGAGTCACCTAGTGCAG	8480 fluorescence intensity (a.u.)
GGTGGAGTGGTTCGGTGGAAATATGAAGATTTTAATAAATCGGAGTCACCTAGTGCAG	8260 fluorescence intensity (a.u.)
CAGTTCATCTTTTGGGTCTCGTGGTTGATTCATTCGATATCGGAGTCACCTAGTGCAG	12600 fluorescence intensity (a.u.)
GATGATTAACGAGTCACTGTTACTACTACTTTCCCACCCTCGGAGTCACCTAGTGCAG	10800 fluorescence intensity (a.u.)
ACTTAAGCGGTTTGACTTTGTAACGGAGAGAGTAGTCATGCGGAGTCACCTAGTGCAG	8340 fluorescence intensity (a.u.)
CATGCTAACAGCCTAATACTGCTATTATTCGTCTCGCTTCCGGAGTCACCTAGTGCAG	9110 fluorescence intensity (a.u.)
TGCTGGAGGCGCTCGACATCTTCGTCTTCCCGCGACTCCGCGGAGTCACCTAGTGCAG	8060 fluorescence intensity (a.u.)
ATTGTCATTGACTTGTCAACAACTAGTTATTGTACATGCACGGAGTCACCTAGTGCAG	8090 fluorescence intensity (a.u.)
AATGTTATTACTATGCCTGGAACGTCACTTATGTATGTCTCGGAGTCACCTAGTGCAG	10500 fluorescence intensity (a.u.)
AGTAGGAAGTTGTGGGCATGTAATTTACTATTTAAAGTTTCGGAGTCACCTAGTGCAG	8650 fluorescence intensity (a.u.)
CTCCATCTAAAGTTGGTGAAAAGCTATATAACCGTTGACTCGGAGTCACCTAGTGCAG	8590 fluorescence intensity (a.u.)
AGTTTTGTGGTTTCATGGCATGGCTGACGGGGTGGTACTGCGGAGTCACCTAGTGCAG	10200 fluorescence intensity (a.u.)
AACCTTATCCTCTTTTGCTGCTCGCTCTTCTGCTTCACAACGGAGTCACCTAGTGCAG	9640 fluorescence intensity (a.u.)
GCTTCATCTTCATTGGCCTTTGCTTTGTGGCGGCTCCAAACGGAGTCACCTAGTGCAG	11000 fluorescence intensity (a.u.)
TTCCTGTGCTAGCTTCTGCCTCTCTGGTTCTGATCATCTGCGGAGTCACCTAGTGCAG	11900 fluorescence intensity (a.u.)
TAGATGACGTCGTTGACTTTTTCTCACATGTTTGACCATTCGGAGTCACCTAGTGCAG	28800 fluorescence intensity (a.u.)
GCAACCTTACTAACACTATCATGTTTTTGTTTTTGCCATACGGAGTCACCTAGTGCAG	8220 fluorescence intensity (a.u.)

In a second layout: entries from further up.
ACTTAAGCGGTTTGACTTTGTAACGGAGAGAGTAGTCATGCGGAGTCACCTAGTGCAG
  binding signal = 8340 fluorescence intensity (a.u.)
CTCCATCTAAAGTTGGTGAAAAGCTATATAACCGTTGACTCGGAGTCACCTAGTGCAG
  binding signal = 8590 fluorescence intensity (a.u.)

Next part.

Sequence	binding signal
TGTTGTTACAAAAGTTTGCTTGTTTTCGTGATACTTACTACGGAGTCACCTAGTGCAG	8950 fluorescence intensity (a.u.)
CTGTACAATTAGTTTTTCTTTTTATTTATATTTAATACTTCGGAGTCACCTAGTGCAG	8130 fluorescence intensity (a.u.)
GCTTAATTTCTTTCTTTGTTCTTATTACTGTCTCACGTGACGGAGTCACCTAGTGCAG	10300 fluorescence intensity (a.u.)
AAATTGTACTTCTACTTGGACTCTCCTTTTTCTTTTTTTTCGGAGTCACCTAGTGCAG	11900 fluorescence intensity (a.u.)
TATTCTTACATGTTTGCCCATTCATCTTATTCAAAAAATTCGGAGTCACCTAGTGCAG	8380 fluorescence intensity (a.u.)
ATTTTCCCATGCAATCCTCTCTTGTGTCTCCTACATTCTCCGGAGTCACCTAGTGCAG	10300 fluorescence intensity (a.u.)
ACTCAACTCCGACCCGGTCGCGTCTTCCAAATTTCTTCCTCGGAGTCACCTAGTGCAG	10300 fluorescence intensity (a.u.)
GAGTTTTCAAATGACATTATTGATTTTTCAGTTTTTTTTTCGGAGTCACCTAGTGCAG	8210 fluorescence intensity (a.u.)
CACCACACCATGCAAAGCTCACACACTTCAGCTCGAGATCCGGAGTCACCTAGTGCAG	9210 fluorescence intensity (a.u.)
TTCTTGCTGGGCACTTTTCCTGGTAGTTTTGGCAGATCTCCGGAGTCACCTAGTGCAG	10000 fluorescence intensity (a.u.)
GTTTTCACCGGCGGCGGGGCGGAGAGAAGAAGGGGAACGGCGGAGTCACCTAGTGCAG	9640 fluorescence intensity (a.u.)
CTCTCTCTCTCTCTCTCTCTCTCCTCACCTCTTCTTGTTCCGGAGTCACCTAGTGCAG	10900 fluorescence intensity (a.u.)
ACTTGCTGATTCTTTTTCTTTGGTTAACTGCACGCTTGCTCGGAGTCACCTAGTGCAG	11600 fluorescence intensity (a.u.)
CGCGCCCGCGCGCAGAGGCGTCCATCTCACCCACGACAGCCGGAGTCACCTAGTGCAG	8220 fluorescence intensity (a.u.)
AATTGATTGTGTCACAGTATATATTATAGTGAGGGGTGGGCGGAGTCACCTAGTGCAG	10000 fluorescence intensity (a.u.)
TGTGGTGTTTTATTGTGAAGAAGAGGAAGAGGAAGAGGTACGGAGTCACCTAGTGCAG	8240 fluorescence intensity (a.u.)
AAAACTACAACTTTAACCTTTTTCTTTCTGTAAAGCACAGCGGAGTCACCTAGTGCAG	8220 fluorescence intensity (a.u.)
GCTTCGCTTCACCCTCAATCCTTTCCTTTCTGTCGCGGCCCGGAGTCACCTAGTGCAG	9240 fluorescence intensity (a.u.)
TCCATCGATCTCATCTTATTCATGTGTTTTTCTTTTGATACGGAGTCACCTAGTGCAG	8400 fluorescence intensity (a.u.)
AGTCATGGTTCCTTATTTTGATTTTGGTTTCTGTTATTGACGGAGTCACCTAGTGCAG	11500 fluorescence intensity (a.u.)
TTAGTATCTTGATCTGTATTTAAGGGTTTGGGGATGTATACGGAGTCACCTAGTGCAG	15500 fluorescence intensity (a.u.)
